# Library screen at single concentrations

Protein sequences, listed by entry. Tags and fused reporters are not part of them.
UniProt P9WFT3, whole entry: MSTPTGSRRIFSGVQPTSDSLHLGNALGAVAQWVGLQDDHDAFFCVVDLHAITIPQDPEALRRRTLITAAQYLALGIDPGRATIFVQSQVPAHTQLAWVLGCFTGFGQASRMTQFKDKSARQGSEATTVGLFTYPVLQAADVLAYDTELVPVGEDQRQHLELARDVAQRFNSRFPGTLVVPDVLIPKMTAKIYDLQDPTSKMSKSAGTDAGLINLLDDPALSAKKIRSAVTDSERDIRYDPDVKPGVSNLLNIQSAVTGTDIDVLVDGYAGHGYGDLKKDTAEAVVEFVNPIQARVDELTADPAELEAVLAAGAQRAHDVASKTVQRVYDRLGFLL
UniProt I6X8D2, whole entry: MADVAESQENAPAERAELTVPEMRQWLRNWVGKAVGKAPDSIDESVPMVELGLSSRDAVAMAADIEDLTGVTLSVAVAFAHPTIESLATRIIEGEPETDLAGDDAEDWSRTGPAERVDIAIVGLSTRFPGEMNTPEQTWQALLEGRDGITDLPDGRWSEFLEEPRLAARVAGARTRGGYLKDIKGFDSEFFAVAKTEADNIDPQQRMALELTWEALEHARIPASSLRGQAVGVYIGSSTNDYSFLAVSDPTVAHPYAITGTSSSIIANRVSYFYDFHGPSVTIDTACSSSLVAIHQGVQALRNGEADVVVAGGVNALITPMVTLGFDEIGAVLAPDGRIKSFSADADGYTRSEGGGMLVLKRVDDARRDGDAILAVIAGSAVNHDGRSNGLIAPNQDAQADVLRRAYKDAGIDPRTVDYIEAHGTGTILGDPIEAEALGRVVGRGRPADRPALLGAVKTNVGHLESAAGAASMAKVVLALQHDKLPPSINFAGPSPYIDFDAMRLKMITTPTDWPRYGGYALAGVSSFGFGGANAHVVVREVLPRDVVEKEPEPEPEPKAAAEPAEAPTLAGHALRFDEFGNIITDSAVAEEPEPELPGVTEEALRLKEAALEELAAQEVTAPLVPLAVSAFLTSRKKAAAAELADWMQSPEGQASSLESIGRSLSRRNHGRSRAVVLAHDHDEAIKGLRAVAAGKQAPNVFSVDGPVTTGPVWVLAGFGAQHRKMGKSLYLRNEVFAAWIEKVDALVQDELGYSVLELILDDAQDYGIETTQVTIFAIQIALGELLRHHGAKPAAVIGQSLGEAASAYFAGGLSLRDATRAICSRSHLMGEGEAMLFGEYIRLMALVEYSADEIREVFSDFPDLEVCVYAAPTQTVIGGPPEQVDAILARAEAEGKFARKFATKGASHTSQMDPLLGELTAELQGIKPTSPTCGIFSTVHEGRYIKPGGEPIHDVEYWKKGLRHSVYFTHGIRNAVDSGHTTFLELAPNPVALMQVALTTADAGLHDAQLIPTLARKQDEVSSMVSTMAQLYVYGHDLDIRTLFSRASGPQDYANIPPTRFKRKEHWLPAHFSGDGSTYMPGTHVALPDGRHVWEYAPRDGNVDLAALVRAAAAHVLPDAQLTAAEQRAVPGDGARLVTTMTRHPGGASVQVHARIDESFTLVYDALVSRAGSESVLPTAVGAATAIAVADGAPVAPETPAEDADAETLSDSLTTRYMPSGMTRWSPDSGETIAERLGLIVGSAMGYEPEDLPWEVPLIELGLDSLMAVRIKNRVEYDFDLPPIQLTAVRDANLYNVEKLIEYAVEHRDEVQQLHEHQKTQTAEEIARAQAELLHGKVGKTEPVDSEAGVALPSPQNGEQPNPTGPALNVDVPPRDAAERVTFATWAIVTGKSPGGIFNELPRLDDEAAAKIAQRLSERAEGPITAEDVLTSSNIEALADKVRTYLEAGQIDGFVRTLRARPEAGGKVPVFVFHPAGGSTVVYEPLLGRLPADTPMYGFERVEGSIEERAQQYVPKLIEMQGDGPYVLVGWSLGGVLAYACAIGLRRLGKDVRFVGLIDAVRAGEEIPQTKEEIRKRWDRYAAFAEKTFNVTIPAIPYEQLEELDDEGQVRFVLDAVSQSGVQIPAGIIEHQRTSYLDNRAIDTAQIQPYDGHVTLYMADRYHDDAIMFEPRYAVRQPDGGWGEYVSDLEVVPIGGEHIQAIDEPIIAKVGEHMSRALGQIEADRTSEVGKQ

Source: ChEMBL document CHEMBL3988442, “University of Dundee, Small-Polar-MMV Screening Library” (2021).

MtTrpRS: 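Enzyme assay of tryptophanyl-tRNA synthetase; the read-out is not stated. Target: Tryptophan-tRNA ligase, Mycobacterium tuberculosis (UniProt P9WFT3). Compounds at 10 µM. Higher most likely means stronger inhibition; the record gives no direction and few retests gave an IC50. About 65,000 compounds were tested under these conditions; 0.098% (about 64) showed 50% or more at least once.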
Pks13 thioesterase: 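Polyketide synthase Pks13, Mycobacterium tuberculosis (UniProt I6X8D2). Enzyme assay of the thioesterase domain of polyketide synthase 13; the read-out is not stated. Compounds at 30 µM. The record gives no direction; the compounds picked for IC50 retests had high values, so higher reads as stronger inhibition. Size under these conditions: about 67,000 compounds, about 300 of them at 50% or above in at least one test.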

The filed quantity is “Percent Effect” (%).
The record does not define 0% and 100%; most values in the screen are far below 50% and negative numbers occur (in some assays of this library far below -100).
This is an unselected part of the compounds tested.
A dash means the value is not listed here; it may have been measured.

SMILES	MtTrpRS	Pks13 thioesterase
CC(C)O[C@H]1CN(C(=O)CCN2CCCCO2)C[C@@H]1O	-0.9031	-5.813
NC1CCCc2c1cnn2-c1cc(F)cc(F)c1 (stereo unspecified)	-1.497	1.872
Cc1cc(C)n2ncc(CN3C[C@@H](O)[C@H](Oc4ccccc4)C3)c2n1	8.314	5.056
c1ccc2sc(CN3CCOC(Cn4cccn4)C3)nc2c1 (stereo unspecified)	-5.556	-17.73
CC(C)CCN1C2(CCN(C(=O)CN(C)C)C2)c2ccccc2S1(=O)=O (stereo unspecified)	-5.94	-10.43
CNc1ncc(-c2ccnn2C2CCN(C(C)=O)CC2)cn1	-	3.184
O=C(O)C1(Cc2ccccc2Cl)CCN(c2ncnc3[nH]ccc23)CC1	3.661	-1.955
COCC(=O)N1CCc2cccc(S(=O)(=O)N3CCOCC3)c2C1	3.153	-3.937
CC(C)c1ccc(NC(=O)c2ncc(C(N)=O)cc2Cl)cc1	-4.627	-8.641
CCNC(=O)c1cnc(Cc2ccc(F)cc2)s1	-1.599	-12.83
CCc1nc(CN2CCCN(C(=O)COCC3CC3)CC2)cs1	2.747	-1.478
Cc1cccc(CN2CC[C@@H]3[C@@H]2CCN3C(=O)Cc2cccs2)n1	-	-3.792
COCC(=O)NCc1cccc(OCCN(C)C2CCOCC2)c1	2.028	-15.96
Cc1cnc(N2CCN(C)c3ncccc3C2)nc1	-6.149	-30.64
Cc1ccccc1C1CCN(C(=O)CCNS(C)(=O)=O)C1 (stereo unspecified)	-1.933	3.804
CC(C)OC[C@H]1CCC[C@]12CN(S(=O)(=O)C1CC1)CCO2	-2.229	-21.3
COc1cccc(S(=O)(=O)CCN2CCCCC2)c1	-6.039	-13.62
CC(C)CCCNC(=O)Nc1ccc(C(N)=O)c(Cl)c1	3.805	-19.6
CCc1nnc2n1CCN(C(=O)c1ccc(C)c(S(N)(=O)=O)c1)C2	1.146	-20.82
Cc1nc(CN2CCCN(C(=O)CCc3ccco3)CC2)cs1	1.467	-0.8713
CCc1ccc(C(=O)NCC2CCCN2CC)o1 (stereo unspecified)	-0.7157	-21.24
O=C(Nc1ccc(CCN2CCOCC2)cc1)C1CCC1	0.6773	-17.02
Cc1nnc(C(C)Nc2cccc(COCCOC(C)C)c2)o1 (stereo unspecified)	-5.43	-
Cc1cc(C)c(CNC(=O)CCC2CCCO2)c(=O)[nH]1 (stereo unspecified)	1.352	-23.18
FC(F)(F)c1ccnc(N2CCCCCC2)c1	5.922	-15.39
COCCOc1ccnc(-c2noc([C@@H]3CCCN3C(C)C)n2)c1	-1.745	-22.34
Cc1ccccc1CN(Cc1ccc(S(C)(=O)=O)cc1)CC(C)C	2.015	13.39
CCc1nccn1C1CCCN(C(=O)CCCc2ccccn2)C1 (stereo unspecified)	3.805	-8.906
O=C(CCC1CCCC1)N1CCC(c2cc3ncccc3c(O)n2)CC1	-2.667	15.02
Cc1ccc(OC2(C(=O)O)CCN(C/C=C/c3ccco3)CC2)cn1	0.9675	-23.23
CCN(CC)C(=O)Cn1cc(C(=O)NCCCc2scnc2C)nn1	-6.673	-42.6
CC(=O)N1CCn2c(-c3cccc(F)c3)cnc2C12CCNCC2	0.9149	-35.95
C=C1C(C)(C)[C@H]2CC[C@]1(C(=O)N1CCC(n3cc(CO)nn3)CC1)C2	2.592	-2.171
c1ccc(Cc2nnc(CN3CCCC(Cn4cncn4)C3)o2)cc1 (stereo unspecified)	-6.15	-22.02
Cc1nonc1CN(C)Cc1cnn(-c2ccc(Cl)cc2)c1	-6.046	18.23
COc1cccc(C(C(=O)O)N(C)Cc2ccc(C)o2)c1 (stereo unspecified)	5.012	-13.18
O=C(c1ccccn1)N1CC(S(=O)(=O)c2ccc(Cl)cc2)C1	2.593	-
O=C(c1ccccn1)N1CCN(C(c2ccccc2)C(F)(F)F)CC1 (stereo unspecified)	9.276	-8.524
CCN(Cc1cccc2c1OCO2)C(=O)NC1CC1	-1.834	-
O=C(NCCc1ccc(Cl)s1)NCc1nnc2n1CCCC2	-5.48	-13.74
COCCN1CCN(c2ccc3ccc(C(=O)NC4CC4)cn23)CC1	-6.686	-32.29
O=C(c1ccco1)N1CC[C@@H](N2CCOCC2)[C@@H]1Cc1ccccc1	-5.534	-9.544
O=C(c1ccc[nH]1)N1CCC2(CC1)COCCN(c1nccs1)C2	-1.34	-36.57
COc1c(CNCc2ccc(CS(C)(=O)=O)cc2)c(C)nn1C	21.07	-33.42
N#Cc1ncn(CCC(=O)Nc2cc(Cl)ccc2Cl)n1	1.708	-6.574
Cn1cc(N2CCC3(CCN(C(=O)[C@H]4CCCO4)C3)C2=O)cn1 (stereo partly specified)	-1.652	-5.399
CCOc1cc(C)nc(N2CCN(C(=O)Cn3cc(C)cn3)CC2)n1	-3.247	2.123
O=S(=O)(NCCc1ccccc1F)N1CCOCC1	2.581	-
COC(=O)c1ccc(-c2noc(CN(CCO)Cc3cccs3)n2)cc1	6.796	30.19
CCc1nc(COc2ccc(N(C)C(C)=O)cc2)no1	15.78	-3.949
COc1ccccc1CNC(=O)CNc1ccccc1C(C)=O	-2.431	-27.63
CC(=O)N1CCCN(C(=O)NCCOc2ccc3c(c2)CCC3)CC1	-4.011	-8.057
CCN(CC)C(=O)C1CCN(c2ccc(Cl)cc2C#N)CC1	-3.417	-27.08
O=S(=O)(NCC1(O)CCCC1)c1ccccc1Br	-3.571	-16.71
CNC(=O)N1C[C@H]2C[C@H](C(=O)Nc3ccccc3)[C@@H](C1)O2	-2.013	-16.61
CC(=O)c1c(O)ccnc1C(F)(F)F	-5.055	-6.795
Cc1ccccc1C(=O)NCc1ccc(N2CCNC(=O)C2)cc1	6.269	9.281
Cc1ccnc(C2CCCN2C(=O)c2cnccn2)n1 (stereo unspecified)	-	-0.2439
Cc1cc(NC(=O)CCn2nc(C)c3ccccc32)n(C)n1	4.838	-17.78
O=C(Nc1ccnn1C1CCCC1)c1ccc(NC2CC2)nc1	-2.786	-32.29
C[C@H](NC(=O)c1cnc(-c2ccccc2)nc1O)C(N)=O	-1.944	9.246
O=C1CC(CNc2cncc(Br)c2)c2ccccc2N1 (stereo unspecified)	-0.3276	1.094
O=C(N1CCCC1)N1CCC2(CCN(Cc3ccccn3)C2=O)C1 (stereo unspecified)	0.4188	9.519
COc1ccccc1C1CC(=O)Nc2nc(N3CCCCC3)sc21 (stereo unspecified)	1.627	3.603
C[C@]1(O)CCN(Cc2ncccc2F)C[C@@H]1Oc1ccccc1	2.039	8.248
CN(C)Cc1nnc2n1CCN(Cc1cccnc1)C2	3.743	-15.49
Cn1cnc2c1CCN(CCOc1ccc3c(c1)CCC(=O)N3)C2	-4.918	-12.32
Cc1ncc2c(n1)CN(CC(=O)Nc1cccnc1)CC2	16.8	-22.46
Cn1nc(C2CCCN(Cc3ccsc3)C2)c2nccnc21 (stereo unspecified)	-0.08361	-34.26
Clc1ccc(C2(NCc3noc(C4CC4)n3)CCC2)cc1	-1.242	-14.71
CSc1cc(CNC(=O)CCOc2ccccc2C)ccn1	-3.01	-
COCCCC1(C(=O)O)CCCN(C(=O)c2ccc(C(C)C)[nH]c2=O)C1 (stereo unspecified)	0.08946	-32.42
CCC(C)(NCc1cccc(NC(C)=O)c1)c1nc(C)cs1 (stereo unspecified)	-3.782	-23.44

Some entries from above, unchanged:

SMILES	MtTrpRS	Pks13 thioesterase
COCCCC1(C(=O)O)CCCN(C(=O)c2ccc(C(C)C)[nH]c2=O)C1 (stereo unspecified)	0.08946	-32.42
Cc1ccccc1C(=O)NCc1ccc(N2CCNC(=O)C2)cc1	6.269	9.281
COc1cccc(S(=O)(=O)CCN2CCCCC2)c1	-6.039	-13.62
COc1ccccc1C1CC(=O)Nc2nc(N3CCCCC3)sc21 (stereo unspecified)	1.627	3.603
O=S(=O)(NCCc1ccccc1F)N1CCOCC1	2.581	-